# Experimental data as given in PubChem BioAssay AID210 (DTP/NCI, 2004).
# The list shows only some results of the screen, not a fair sample: it is rich in T/C values a quarter to a half above the control, in often repeated tests (any T/C) and in doses without a T/C. Further doses and runs are listed elsewhere. T/C is the treated group as % of the vehicle group. Some doses have a count of surviving animals in place of a T/C: the source holds a T/C of zero for them, seemingly a mark for toxic or unscored doses. Some survivor counts are full or nearly so, which does not show that the dose was tolerated: the source hardly ever lists a survival T/C far under the control, and the zero likely stands for such cases as well. Counts of survivors are from the toxicity check (mostly the fifth day) where no day follows; animals may have died later. Schedules are NCI's codes, taken here to give the interval after Q, in days (D) or hours (H), and the number of doses after X. Some doses were run more than once; their values stand side by side, smallest first. Where survival is the endpoint, this PubChem deposit counts one and a half times the control or more as active, and values a quarter to a half above the control carry no call in these data; other NCI protocols may use other cut-offs. Some T/C values carry the count of animals alive at the toxicity check (mostly the fifth day); where none is given, no animal had died by that day. *1 amine or outer side, *2 acyl side, *3 side chain or, on linkers, in order; H or OH if unused. Where a SMILES comes first, the peptide text is derived from it. Bridges are numbered along the chain shown (N, C = ends). Roman numbers before positions name the chains, in order. [ ]: non-standard residue; d: D form. Actinocin(9to1) = Cc1c2oc3c(C)ccc(C(=O)[*:1])c3nc-2c(C(=O)[*:2])c(N)c1=O; aThr = C[C@H](O)[C@H](N)C(=O)O; NMeV = CN[C@H](C(=O)O)C(C)C; Sar = CNCC(=O)O
# Tested on: CD2F1 mice, ip Colon 26 adenocarcinoma, median survival T/C
# Experiment: NCI In Vivo Anticancer Drug Screen. Data for tumor model Colon 26 Adenocarcinoma (intraperitoneal) in CD2F1 (CDF1) mice
# Conditions: T/C endpoint: median survival time, higher T/C = longer survival
# Experimental: The antitumor activity of compounds was measured in mice bearing transplantable tumors. Survival or tumor size were measured and the results are expressed as the measurement made in the treated group (T) divided by the measurement made in the vehicle treated control group (C). The tumor model used in this assay is Colon 26 Adenocarcinoma (intraperitoneal) in CD2F1 (CDF1) mice
compound,measurement,setting,value
S=P(N1CC1)(N1CC1)N1CC1,T/C,"dose: 6.0 mg/kg/injection, schedule: Q04DX003 (ip), vehicle: saline",136 % of control
same,survivor count,"dose: 24.0 mg/kg/injection, schedule: Q04DX003 (ip), vehicle: saline",10 of 10
OC(C1CO1)C(O)C1CO1 (configuration not stated),T/C,"dose: 2.0 mg/kg/injection, schedule: Q04DX003 (ip), vehicle: saline",125 % of control
same,T/C,"dose: 4.0 mg/kg/injection, schedule: Q04DX003 (ip), vehicle: saline",144 % of control
same,T/C,"dose: 4.8 mg/kg/injection, schedule: Q07DX003 (iv), vehicle: saline",137 % of control
same,survivor count,"dose: 16.0 mg/kg/injection, schedule: Q04DX003 (ip), vehicle: saline",7 of 10
CC(=O)[C@]1(O)Cc2c(O)c3c(c(O)c2[C@@H](OC2CC(N)C(O)C(C)O2)C1)C(=O)c1c(O)cccc1C3=O (some centres not stated),T/C,"dose: 1.2 mg/kg/injection, schedule: Q07DX002 (iv), vehicle: water",142 % of control
same,T/C,"dose: 216.0 micrograms/kg/injection, schedule: Q04DX003 (ip), vehicle: water",130 % of control
same,T/C,"dose: 360.0 micrograms/kg/injection, schedule: Q04DX003 (ip), vehicle: water",141 % of control
same,survivor count,"dose: 1000.0 micrograms/kg/injection, schedule: Q04DX003 (ip), vehicle: water",8 of 8
CN(C1=NS(=O)(=O)N=C(N(C)c2ccccc2)O1)c1ccccc1,survivor count,"dose: 100.0 mg/kg/injection, schedule: Q04DX003 (ip), vehicle: Klucel (hydroxypropylcellulose) (HPC)",9 of 10
same,survivor count,"dose: 400.0 mg/kg/injection, schedule: Q04DX003 (ip), vehicle: Klucel (hydroxypropylcellulose) (HPC)",10 of 10
C=CCCC(=O)CCCC(=O)O[C@@H]1[C@@H]2[C@H](CC1(C)C)[C@H](O)[C@@]13O[C@@H]1[C@H](O)[C@@]1(CO1)[C@@]23C,T/C,"dose: 6.25 micrograms/kg/injection, schedule: Q04DX002 (ip), vehicle: Klucel (hydroxypropylcellulose) (HPC)",125 % of control
same,T/C,"dose: 12.5 micrograms/kg/injection, schedule: Q04DX002 (ip), vehicle: Klucel (hydroxypropylcellulose) (HPC), evaluated on day 60",148 % of control
same,T/C,"dose: 12.5 micrograms/kg/injection, schedule: Q04DX002 (ip), vehicle: Klucel (hydroxypropylcellulose) (HPC), evaluated on day 120",144 % of control
same,T/C,"dose: 100.0 micrograms/kg/injection, schedule: Q04DX002 (ip), vehicle: Klucel (hydroxypropylcellulose) (HPC)",134 % of control
CN(C)/N=N/c1nc[nH]c1C(N)=O,T/C,"dose: 200.0 mg/kg/injection, schedule: Q04DX003 (ip), vehicle: carboxymethylcellulose (CMC)",136 % of control
Cc1ncc(CNC(=O)N(CCCl)N=O)c(N)n1,survivor count,"dose: 103.0 mg/kg/injection, schedule: Q04DX003 (oral), vehicle: saline",10 of 10 on day 8
"Cc1c2oc3c(C)ccc(C(=O)N[C@@H]4C(=O)N[C@H](C(C)C)C(=O)N5CCC[C@H]5C(=O)N(C)CC(=O)N(C)[C@@H](C(C)C)C(=O)O[C@H]4C)c3nc-2c(C(=O)N[C@@H]2C(=O)N[C@H](C(C)C)C(=O)N3CCC[C@H]3C(=O)N(C)CC(=O)N(C)[C@@H](C(C)C)C(=O)O[C@H]2C)c(N)c1=O (I: [aThr][dV]P[Sar][NMeV] / II: [aThr][dV]P[Sar][NMeV]; ester I:1-I:C, II:1-II:C; linker I:N-II:N via Actinocin(9to1))",T/C,"dose: 47.0 micrograms/kg/injection, schedule: Q04DX003 (ip), vehicle: saline",127 % of control
same,T/C,"dose: 78.0 micrograms/kg/injection, schedule: Q04DX003 (ip), vehicle: saline",127 % of control
same,T/C,"dose: 108.0 micrograms/kg/injection, schedule: Q04DX003 (ip), vehicle: saline + alcohol",146 % of control
same,T/C,"dose: 130.0 micrograms/kg/injection, schedule: Q04DX003 (ip), vehicle: saline",135 % of control
same,T/C,"dose: 300.0 micrograms/kg/injection, schedule: Q04DX003 (ip), vehicle: saline + alcohol",147 % of control
same,survivor count,"dose: 300.0 micrograms/kg/injection, schedule: Q04DX003 (ip), vehicle: saline",10 of 10
same,survivor count,"dose: 600.0 micrograms/kg/injection, schedule: Q04DX003 (ip), vehicle: saline",8 of 10
same,survivor count,"dose: 1000.0 micrograms/kg/injection, schedule: Q01DX001 (ip), vehicle: saline + alcohol",1 of 8
CCC(C)C(=O)O[C@H]1C(=O)O[C@@H]2C[C@H]3C(C)=CC(=O)[C@@H](O)[C@]3(C)[C@H]3[C@@H](O)[C@H](O)[C@@]4(C)OC[C@]32[C@@H]14 (some centres not stated),survivor count,"dose: 4.0 mg/kg/injection, schedule: Q04DX002 (ip), vehicle: saline",6 of 10
same,survivor count,"dose: 8.0 mg/kg/injection, schedule: Q04DX002 (ip), vehicle: saline",4 of 10
Cc1[nH]c(=O)[nH]c(=O)c1N(CCF)CCCl,T/C,"dose: 8.0 mg/kg/injection, schedule: Q04DX003 (ip), vehicle: Klucel (hydroxypropylcellulose) (HPC), evaluated on day 60",106 % of control
same,T/C,"dose: 8.0 mg/kg/injection, schedule: Q04DX003 (ip), vehicle: Klucel (hydroxypropylcellulose) (HPC), evaluated on day 70","91, 100, 102, 106 % of control"
same,T/C,"dose: 16.0 mg/kg/injection, schedule: Q04DX003 (ip), vehicle: Klucel (hydroxypropylcellulose) (HPC), evaluated on day 60",103 % of control
same,T/C,"dose: 16.0 mg/kg/injection, schedule: Q04DX003 (ip), vehicle: Klucel (hydroxypropylcellulose) (HPC), evaluated on day 70","102, 123, 127, 129 % of control"
same,T/C,"dose: 32.0 mg/kg/injection, schedule: Q04DX002 (ip), vehicle: Klucel (hydroxypropylcellulose) (HPC)",138 % of control [9 of 10 alive]
same,T/C,"dose: 32.0 mg/kg/injection, schedule: Q04DX003 (ip), vehicle: Klucel (hydroxypropylcellulose) (HPC), evaluated on day 60",122 % of control
same,T/C,"dose: 32.0 mg/kg/injection, schedule: Q04DX003 (ip), vehicle: Klucel (hydroxypropylcellulose) (HPC), evaluated on day 70","97 [9 of 10 alive], 131, 166, 222 % of control"
same,survivor count,"dose: 64.0 mg/kg/injection, schedule: Q04DX002 (ip), vehicle: Klucel (hydroxypropylcellulose) (HPC)",5 of 10
same,T/C,"dose: 64.0 mg/kg/injection, schedule: Q04DX003 (ip), vehicle: Klucel (hydroxypropylcellulose) (HPC), evaluated on day 60",117 % of control
same,T/C,"dose: 64.0 mg/kg/injection, schedule: Q04DX003 (ip), vehicle: Klucel (hydroxypropylcellulose) (HPC), evaluated on day 70",174 % of control
same,survivor count,"dose: 64.0 mg/kg/injection, schedule: Q04DX003 (ip), vehicle: Klucel (hydroxypropylcellulose) (HPC)","7 of 10, 9 of 10, 10 of 10"
same,survivor count,"dose: 128.0 mg/kg/injection, schedule: Q04DX002 (ip), vehicle: Klucel (hydroxypropylcellulose) (HPC)",0 of 10
same,T/C,"dose: 128.0 mg/kg/injection, schedule: Q04DX003 (ip), vehicle: Klucel (hydroxypropylcellulose) (HPC), evaluated on day 60",138 % of control
same,T/C,"dose: 128.0 mg/kg/injection, schedule: Q04DX003 (ip), vehicle: Klucel (hydroxypropylcellulose) (HPC), evaluated on day 70",152 % of control
same,survivor count,"dose: 128.0 mg/kg/injection, schedule: Q04DX003 (ip), vehicle: Klucel (hydroxypropylcellulose) (HPC)",0 of 10
CCc1ncnc2cc(OCC3CO3)c(OC)cc12 (configuration not stated),survivor count,"dose: 40.0 mg/kg/injection, schedule: Q03DX002 (iv), vehicle: saline",8 of 8 on day 10
same,T/C,"dose: 80.0 mg/kg/injection, schedule: Q03DX002 (ip), vehicle: saline",125 % of control
same,survivor count,"dose: 80.0 mg/kg/injection, schedule: Q03DX002 (sc), vehicle: saline",8 of 8 on day 10
O=P1(N(CCCl)CCCl)NCCCO1 (configuration not stated),T/C,"dose: 51.0 mg/kg/injection, schedule: Q07DX003 (ip), vehicle: saline",130 % of control
same,T/C,"dose: 73.0 mg/kg/injection, schedule: Q07DX003 (ip), vehicle: saline, evaluated on day 60",143 % of control
same,T/C,"dose: 73.0 mg/kg/injection, schedule: Q07DX003 (ip), vehicle: saline, evaluated on day 70",133 % of control
same,T/C,"dose: 105.0 mg/kg/injection, schedule: Q07DX003 (ip), vehicle: saline",146 % of control
same,T/C,"dose: 150.0 mg/kg/injection, schedule: Q03DX002 (ip), vehicle: saline",126 % of control
same,T/C,"dose: 150.0 mg/kg/injection, schedule: Q07DX003 (ip), vehicle: saline",131 % of control
